Results on one molecule are retold here after PMC6994103 (PLoS Neglected Tropical Diseases, 2020).

In the assay the test system is VERO cells. Kind of assay: Toxicity assay in VERO cells (gentian violet staining). Type of assay: cell-based, African green monkey. The settings on record: IC50 in VERO cells / IC50 in trypomastigotes (Y strain). As to the method:
VERO cells (African green monkey Kidney, ATCC CCL-81) were cultured in MEM medium supplemented with 10% heat inactivated FCS, 0.15% (w/v) NaHCO3, 100 U/mL penicillin and 100 U/mL streptomycin at 37°C in 5% CO2.
The toxicity of the compounds was determined in VERO cells by the gentian violet staining assay. Briefly, the cells (1 x10^4 cells/well) were incubated in 96-well plates with the indicated compound or dimethyl sulfoxide (DMSO) as negative control and maintained at 37° C for 24 h. Then the cells were fixed for 15 min, and stained with 0.5% gentian violet. The absorbance was measured at 570 nm. The selectivity index (SI) was calculated for each CV analogue as the ratio between the IC50 obtained in mammalian cells and the IC50 in trypomastigotes. For the combined treatment, the results were presented as percentage of untreated cells.

Turning to `CCOC(=O)N1CCC(=C2c3ccc(Cl)cc3CCc3cccnc32)CC1` [Loratadine], the “Selectivity Index” value came to 5.5.
